{"source": "patent US20070110817A1", "about": "“Biological active blood serum obtained by electrostimulation” (Owen Holding Ltd., priority 2004, published 2007)", "experiment_in_all_cases": "MTT-test cell survival", "type_in_all_cases": "cell-based", "key": {"[1]": {"test_system": "HeLa cells", "details": "Homo sapiens", "procedure": "(§1) The blood serum of the present invention is a lyophilized chicken blood treated with electroshock of grade II to III and γ-radiation. The biological active serum was used in two formulations types: (i) serum resuspended in water at a concentration of 100 mg/ml (trial fraction 1) and (ii) the supernatant of the suspension of 100 mg/ml biological active serum in water after three minute of centrifugation of the suspension at 10.000×g (trial fraction 2).\n(§2) The cells of the Jurkat and Raji cell line as well as lymphocytes of the human peripheral blood were cultured in plastic tissue culture plates (Nunc or Falcon) in 1640-RPMI medium (Sigma) containing 10% fetal calf serum (FCS, Gibco), 100 units/ml penicilin and 100 μg/ml streptomycin at a temperature of 37° C., at 5% CO2 content and 95% humidity. The cell lines Bro, HeLa, MCF-7, Mg63, HT1080, IMR-32 as well as HepG2 were cultivated as above, however, using DMEM medium (Sigma) instead of 1640-RPMI medium.\n(§3) The MTT-test was carried out as described by Mosmann T. (Rapid colorimetric assay for cellular growth and survival: application to proliferation and cytotoxicity assays (1983) J. Immunol. Meth. 65: 55-63).\n(§4) To carry out the test cells were collected in the log. phase (adherent cells were collected when they filled about half of the tissue culture plate). They were placed into growth media in a Gorjaew-chamber, counted and subsequently resuspended in medium at a concentration of 50-100×10^6/ml. The cell solutions were placed into the 96 well plates after the addition of the various concentrations of the trial fractions in a total amount of 100 μl. […] As a next step culture medium was removed by suction with a pump and 150 μl dimethyl sulfoxide (DMSO) were added to each well to dissolve blue formazan crystals, which had formed, and the optical density of the solution in each well was detected with a multichannel spectrophotometer with a microplate reader at a wave length of 540 nm (Labsystem). […]"}, "[2]": {"test_system": "MCF-7 cells", "details": "Homo sapiens, MCF7", "procedure": "as §1, §2, §3, §4"}, "[3]": {"test_system": "HepG2 cells", "details": "Homo sapiens", "procedure": "as §1, §2, §3, §4"}}, "note": "pIC50: −log10 of the molar value.", "data": [{"smiles": "COc1cccc2c1C(=O)c1c(O)c3c(c(O)c1C2=O)C[C@@](O)(C(=O)CO)C[C@@H]3O[C@H]1C[C@H](N)[C@H](O)[C@H](C)O1", "note": "[doxorubicin]", "values": [{"measurement": "pIC50", "setting": "[1]", "value": 6.40}, {"measurement": "pIC50", "setting": "[2]", "value": 6.82}, {"measurement": "pIC50", "setting": "[3]", "value": 7.00}]}]}
